Laboratory results from the supplement of paper PMC8728848.
The other results are listed elsewhere or left out.

Legend:
Test in all cases: glycan array binding signal (z-score within array); higher = stronger binding
Details in all cases: glycan notation: IUPAC condensed, linker removed
[1] = biological target: GlcNAc(b1-2)Man(a1-3)[GlcNAc(b1-4)][GlcNAc(b1-2)Man(a1-6)]Man(b1-4)GlcNAc(b1-4)GlcNAc
In short: (§1)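 Columns mapping to the same glycan were averaged after glycan names were converted to IUPAC-condensed notation. The data come from 3228 arrays in the Consortium for Functional Glycomics database, limited to those with an available protein sequence. Binding is reported as a within-array Z-score averaged across arrays of one protein sequence and across linkers.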

[2] = biological target: GlcNAc(b1-2)[GlcNAc(b1-4)]Man(a1-3)[GlcNAc(b1-2)Man(a1-6)]Man(b1-4)GlcNAc(b1-4)GlcNAc
In short: as §1

[3] = biological target: GlcNAc(b1-2)[GlcNAc(b1-4)]Man(a1-3)[GlcNAc(b1-4)][GlcNAc(b1-2)Man(a1-6)]Man(b1-4)GlcNAc(b1-4)GlcNAc
In short: as §1

[4] = biological target: GlcNAc(b1-2)[GlcNAc(b1-4)]Man(a1-3)[GlcNAc(b1-4)][GlcNAc(b1-2)[GlcNAc(b1-6)]Man(a1-6)]Man(b1-4)GlcNAc(b1-4)GlcNAc
In short: as §1

[5] = biological target: GlcNAc(b1-2)[GlcNAc(b1-6)]Man(a1-6)[GlcNAc(b1-2)Man(a1-3)]Man(b1-4)GlcNAc(b1-4)GlcNAc
In short: as §1

[6] = biological target: GlcNAc(b1-2)[GlcNAc(b1-6)]Man(a1-6)[GlcNAc(b1-2)Man(a1-3)][GlcNAc(b1-4)]Man(b1-4)GlcNAc(b1-4)GlcNAc
In short: as §1

[7] = biological target: GlcNAc(b1-3)Gal
In short: as §1

[8] = biological target: GlcNAc(b1-3)Gal(b1-3)GalNAc
In short: as §1

[9] = biological target: GlcNAc(b1-3)Gal(b1-4)Glc
In short: as §1

[10] = biological target: GlcNAc(b1-3)Gal(b1-4)GlcNAc
In short: as §1

[11] = biological target: GlcNAc(b1-3)Gal(b1-4)GlcNAc(b1-3)Gal(b1-4)GlcNAc
In short: as §1

[12] = biological target: GlcNAc(b1-3)GalNAc
In short: as §1

[13] = biological target: GlcNAc(b1-3)Man
In short: as §1

[14] = biological target: GlcNAc(b1-3)[GlcNAc(b1-4)][GlcNAc(b1-6)]GlcNAc
In short: as §1

[15] = biological target: GlcNAc(b1-3)[GlcNAc(b1-6)]Gal(b1-4)GlcNAc
In short: as §1

[16] = biological target: GlcNAc(b1-3)[GlcNAc(b1-6)]GalNAc
In short: as §1

[17] = biological target: GlcNAc(b1-4)Gal(b1-4)GlcNAc
In short: as §1

[18] = biological target: GlcNAc(b1-4)GlcNAc
In short: as §1

[19] = biological target: GlcNAc(b1-4)GlcNAc(b1-4)GlcNAc
In short: as §1

[20] = biological target: GlcNAc(b1-4)GlcNAc(b1-4)GlcNAc(b1-4)GlcNAc(b1-4)GlcNAc
In short: as §1

[21] = biological target: GlcNAc(b1-4)GlcNAc(b1-4)GlcNAc(b1-4)GlcNAc(b1-4)GlcNAc(b1-4)GlcNAc
In short: as §1

[22] = biological target: GlcNAc(b1-4)[GlcNAc(b1-6)]GalNAc
In short: as §1

[23] = biological target: GlcNAc(b1-6)Gal(b1-4)GlcNAc
In short: as §1

[24] = biological target: GlcNAc(b1-6)GalNAc
In short: as §1

[25] = biological target: GlcNAc3Prop(b1-4)GlcNAc
In short: as §1

[26] = biological target: GlcNAc6S(b1-3)Gal(b1-4)GlcNAc
In short: as §1

[27] = biological target: Kdn(a2-3)Gal(b1-3)GalNAc
In short: as §1

[28] = biological target: Kdn(a2-3)Gal(b1-3)GlcNAc
In short: as §1

[29] = biological target: Kdn(a2-3)Gal(b1-4)Glc
In short: as §1

[30] = biological target: Kdn(a2-3)Gal(b1-4)GlcNAc
In short: as §1

[31] = biological target: Kdn(a2-3)Gal(b1-4)[Fuc(a1-3)]GlcNAc
In short: as §1

[32] = biological target: Kdn(a2-6)Gal(b1-4)GlcNAc
In short: as §1

[33] = biological target: Man(a1-2)Man(a1-2)Man(a1-3)Man
In short: as §1

[34] = biological target: Man(a1-2)Man(a1-2)Man(a1-6)[Man(a1-3)]Man
In short: as §1

[35] = biological target: Man(a1-2)Man(a1-3)Man
In short: as §1

[36] = biological target: Man(a1-2)Man(a1-3)[Man(a1-2)Man(a1-6)]Man
In short: as §1

[37] = biological target: Man(a1-2)Man(a1-3)[Man(a1-2)Man(a1-6)]Man(a1-6)[Man(a1-2)Man(a1-2)Man(a1-3)]Man
In short: as §1

[38] = biological target: Man(a1-2)Man(a1-3)[Man(a1-2)Man(a1-6)]Man(a1-6)[Man(a1-2)Man(a1-2)Man(a1-3)]Man(b1-4)GlcNAc(b1-4)GlcNAc
In short: as §1

B1: MFG-E8 (Homo sapiens), Q08431 (protein)
chain: MPRPRLLAALCGALLCAPSLLVALDICSKNPCHNGGLCEEISQEVRGDVFPSYTCTCLKGYAGNHCETKCVEPLGLENGNIANSQIAASSVRVTFLGLQHWVPELARLNRAGMVNAWTPSSNDDNPWIQVNLLRRMWVTGVVTQGASRLASHEYLKAFKVAYSLNGHEFDFIHDVNKKHKEFVGNWNKNAVHVNLFETPVEAQYVRLYPTSCHTACTLRFELLGCELNGCANPLGLKNNSIPDKQITASSSYKTWGLHLFSWNPSYARLDKQGNFNAWVAGSYGNDQWLQVDLGSSKEVTGIITQGARNFGSVQFVASYKVAYSNDSANWTEYQDPRTGSSKIFPGNWDNHSHKKNLFETPILARYVRILPVAWHNRIALRLELLGC
[1]
  glycan array binding signal (z-score): -0.345
[2]
  glycan array binding signal (z-score): 0.442
[3]
  glycan array binding signal (z-score): 1.76
[4]
  glycan array binding signal (z-score): 1.57
[5]
  glycan array binding signal (z-score): 2.13
[6]
  glycan array binding signal (z-score): -0.144
[7]
  glycan array binding signal (z-score): -0.329
[8]
  glycan array binding signal (z-score): 0.268
[9]
  glycan array binding signal (z-score): -0.526
[10]
  glycan array binding signal (z-score): -0.62
[11]
  glycan array binding signal (z-score): -0.66
[12]
  glycan array binding signal (z-score): -0.488
[13]
  glycan array binding signal (z-score): 0.419
[14]
  glycan array binding signal (z-score): -0.183
[15]
  glycan array binding signal (z-score): -0.553
[16]
  glycan array binding signal (z-score): 0.166
[17]
  glycan array binding signal (z-score): 0.313
[18]
  glycan array binding signal (z-score): 0.206
[19]
  glycan array binding signal (z-score): -0.556
[20]
  glycan array binding signal (z-score): -0.126
[21]
  glycan array binding signal (z-score): -0.589
[22]
  glycan array binding signal (z-score): -0.585
[23]
  glycan array binding signal (z-score): -0.77
[24]
  glycan array binding signal (z-score): -0.778
[25]
  glycan array binding signal (z-score): -0.445
[26]
  glycan array binding signal (z-score): -0.749
[27]
  glycan array binding signal (z-score): -0.347
[28]
  glycan array binding signal (z-score): -0.677
[29]
  glycan array binding signal (z-score): 0.143
[30]
  glycan array binding signal (z-score): -0.562
[31]
  glycan array binding signal (z-score): 1.08
[32]
  glycan array binding signal (z-score): -0.722
[33]
  glycan array binding signal (z-score): -0.642
[34]
  glycan array binding signal (z-score): -0.556
[35]
  glycan array binding signal (z-score): -0.562
[36]
  glycan array binding signal (z-score): -0.547
[37]
  glycan array binding signal (z-score): -0.613
[38]
  glycan array binding signal (z-score): -0.542
